Some of the results follow.

Amino acid sequences for entries named in this document (tags omitted).
UniProt Q0JBA9, entry or part of it: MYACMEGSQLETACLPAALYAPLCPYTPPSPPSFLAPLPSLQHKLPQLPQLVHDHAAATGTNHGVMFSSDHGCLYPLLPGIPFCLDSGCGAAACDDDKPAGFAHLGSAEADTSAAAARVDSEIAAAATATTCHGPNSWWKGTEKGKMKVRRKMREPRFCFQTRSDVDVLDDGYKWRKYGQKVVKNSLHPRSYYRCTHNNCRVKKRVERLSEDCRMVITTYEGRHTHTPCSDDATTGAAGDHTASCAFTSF

This experiment has as its target OsWRKY34 (Oryza sativa, UniProt Q0JBA9 1-250). Kind of experiment: protein-binding microarray (RPBM); PBS, 2% BSA, 51.3 ng/ul salmon testes DNA, 50 uM zinc acetate, 200 nM TF, 25 C, 1 h; high values mean tight binding. Conditions: protein: recombinant; tags: N-terminal polyhistidine and DsRed monomer fusion (pET32a); label: CyDye5-dUTP incorporated in the synthesized complementary strand; 3' TTTTT single-stranded linker to array surface; dsDNA, one strand shown. A digest of the protocol:
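Polyhistidine-tagged DsRed fusions of transcription factors, joined at the N-terminus, were expressed in E. coli BL21-CodonPlus and isolated on Ni–NTA. They were incubated at 200 nM for 1 h at 25 °C on a custom Agilent array, double-stranded and BSA-blocked, in PBS with 2% BSA, salmon testes DNA and 50 µM zinc acetate. The binding signal is per-feature fluorescence intensity (arbitrary units) read on an Axon 4000B scanner after washing.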
As to “ATCAGCTTTCTCAAACCACGCAGCCACGACACATCGATCTCGGAGTCACCTAGTGCAG”, the binding signal is 8960 fluorescence intensity (a.u.).
For the sequence “TACGTACCATCCATGCATGATCCATCCATCTTGCGGCCATCGGAGTCACCTAGTGCAG”, the binding signal is 11900 fluorescence intensity (a.u.).
The value for “CATGTTGAATGCCAACGTCTCATCAGCGCATTCACCTTCACGGAGTCACCTAGTGCAG” was 9760 fluorescence intensity (a.u.); that for “GATTTTTGTATGCCGTTCTTTTAACTGAAACCATTCGATTCGGAGTCACCTAGTGCAG” was 8750 fluorescence intensity (a.u.).
Take “TGGTTTTTTGTTTTCTTATCGCCTTTTTACGACTTTTTTTCGGAGTCACCTAGTGCAG”: the binding signal is 9270 fluorescence intensity (a.u.).
Regarding “CTCAATCCAATCTTGCCGCTCTCCGGGCTCACAGTTTCTTCGGAGTCACCTAGTGCAG”, the binding signal was 10300 fluorescence intensity (a.u.).
Consider “CTAGGGTTTGATGGGAGATGGATGTGTGGTGATGGCCTAGCGGAGTCACCTAGTGCAG”, for which the binding signal was 8150 fluorescence intensity (a.u.).
Take “ACGATTATCCCAGCTCTGTTTTCCGGTATGACCATTGATTCGGAGTCACCTAGTGCAG”: the binding signal was 8750 fluorescence intensity (a.u.).
Take “CCCCAACCCGCCGCCAGCCACCGAGCTCGCCACCGTCTCCCGGAGTCACCTAGTGCAG”: the binding signal is 8970 fluorescence intensity (a.u.).
Consider “GATAAACCCTCATCGTCAGTTCGTCACCCACCGTCGCCTCCGGAGTCACCTAGTGCAG”, for which the binding signal was 9030 fluorescence intensity (a.u.).
The value for “TTCTTCTTCTTACTACAGACTGAGTACGGCGATATCTTCACGGAGTCACCTAGTGCAG” was 8170 fluorescence intensity (a.u.); that for “TGTGATTTAGTTTGACCAGGGAGGCCATGATCTGCATGCACGGAGTCACCTAGTGCAG” was 8480 fluorescence intensity (a.u.); that for “GCTTCCCTGCTGTTTCGTTTTCTAATTCTGGGATGCACCTCGGAGTCACCTAGTGCAG” was 10400 fluorescence intensity (a.u.).
For the sequence “TCTGGTCATTCATCTTATGTGGTTCATACTTTTTAGCACTCGGAGTCACCTAGTGCAG”, the binding signal was 9250 fluorescence intensity (a.u.).
On to “ATTATATAATCATTATTTATTTTATCATCACATGTTTTATCGGAGTCACCTAGTGCAG”, for which the binding signal was 8980 fluorescence intensity (a.u.).
As to “GTTTTCTGGTCAAACTCCAACCGTTTTACCCGCCATTTTGCGGAGTCACCTAGTGCAG”, the binding signal was 10200 fluorescence intensity (a.u.).
On to “ACCTGATTTCCCCTTGCTAATTCGGGCCATCGCATCACTCCGGAGTCACCTAGTGCAG”, for which the binding signal was 8960 fluorescence intensity (a.u.).
The value for “CTGCTGCTCTTTTCGTCTATGGAAATGCCATACCGATTCCCGGAGTCACCTAGTGCAG” was 10900 fluorescence intensity (a.u.).
Take “TTATTTTTATTCTTTTATTGTTTTTTTCACTCCATAATAACGGAGTCACCTAGTGCAG”: the binding signal was 9140 fluorescence intensity (a.u.).
“TCTCCTCCACCTTTTTATACAACGCAAATCGCCTCGTCACCGGAGTCACCTAGTGCAG”: the binding signal is 8780 fluorescence intensity (a.u.).
Regarding “TCACTTTATTTTATCGCATTGGCAAAGACTATCCATATCCCGGAGTCACCTAGTGCAG”, the binding signal was 9320 fluorescence intensity (a.u.).
As for “CCACGCCCACGCCCACGCCCACGCCCACGCCACGCGTCCCCGGAGTCACCTAGTGCAG”, the binding signal was 9080 fluorescence intensity (a.u.).
As to “GGACATTTGGAACTGATTACTCCTACTACTCTAGTGAAAACGGAGTCACCTAGTGCAG”, the binding signal is 8400 fluorescence intensity (a.u.).
The value for “CAGAACGAGTCCACAGCCTTAACCGCCATGCAATGCACCACGGAGTCACCTAGTGCAG” was 8590 fluorescence intensity (a.u.).
“ACCCAGCGCCGCCATTTTATTCGCTTCGTCAGAACTCAAACGGAGTCACCTAGTGCAG”: the binding signal was 10100 fluorescence intensity (a.u.).
“GCGGTTTGTTCCGCCGCGTGCGCGTTTCAGCTCCTTTTTCCGGAGTCACCTAGTGCAG”: the binding signal is 8640 fluorescence intensity (a.u.).
Turning to “GCTCACATTTCTTGGCCATTTCTTACCTTCCAAGCACCACCGGAGTCACCTAGTGCAG”, the binding signal is 10800 fluorescence intensity (a.u.).
The value for “TTTATAGATGGGGAAGGGGTGGCAACTAGAGACGCGACGGCGGAGTCACCTAGTGCAG” was 9070 fluorescence intensity (a.u.).
For “ATCTACTTTTCTTCCTTTTAGGTTCAACACAATGTTTGCTCGGAGTCACCTAGTGCAG”, the binding signal was 8200 fluorescence intensity (a.u.).
Take “GCCCACATACTCACGGCCCACCGTATCCTATCGTGCCCTACGGAGTCACCTAGTGCAG”: the binding signal was 10200 fluorescence intensity (a.u.).
Turning to “ATGGTCTTGATTTCGCAGTGTGTTAGTTGTTAGTTTTGAGCGGAGTCACCTAGTGCAG”, the binding signal is 10900 fluorescence intensity (a.u.).
The value for “GCACTTACGGGTGGTGATTGTAGTGTGCGTGTGTGTCTTTCGGAGTCACCTAGTGCAG” was 9130 fluorescence intensity (a.u.); that for “GGATGGCAGAAAGGGGAATTGGAAGTTGGTGTACCGTTGCCGGAGTCACCTAGTGCAG” was 8300 fluorescence intensity (a.u.); that for “GCGCTACTACTGCTCCAGCCACTTCATTCAACCCCGTCTTCGGAGTCACCTAGTGCAG” was 9630 fluorescence intensity (a.u.).
Regarding “AACCACCCACCCAACCAGCCAGGCGGCCGGCCGCCACCGTCGGAGTCACCTAGTGCAG”, the binding signal was 8870 fluorescence intensity (a.u.).
Regarding “CTGTCGCCACCATCCAAACCAAGTATCTCGTGCCTCGCAACGGAGTCACCTAGTGCAG”, the binding signal was 8680 fluorescence intensity (a.u.).
Turning to “AGTTTCAGTTCAGTTCACCCCACATTTTCATGGCTCATCACGGAGTCACCTAGTGCAG”, the binding signal was 11300 fluorescence intensity (a.u.).
Turning to “ATCAATCTATTAGAATACTTATTACTGTATCTACTTATGTCGGAGTCACCTAGTGCAG”, the binding signal is 8690 fluorescence intensity (a.u.).
For the sequence “ACTTAAGCTCCGCATAACCATCTCGCCGCCGGCCGAGCCGCGGAGTCACCTAGTGCAG”, the binding signal is 8280 fluorescence intensity (a.u.).
With “ACACAATTCACGTGCTCCCAACTTCCCAAGTCCACATCACCGGAGTCACCTAGTGCAG”, the binding signal is 10200 fluorescence intensity (a.u.).
As for “GCTTGGCGTCTCTCCTTCCTGGACCGACCCTTTTATTTGTCGGAGTCACCTAGTGCAG”, the binding signal was 10800 fluorescence intensity (a.u.).
As to “CTTCCTTAGTGTGTGTGTATATCTCTCTCTCTCTCTCTCACGGAGTCACCTAGTGCAG”, the binding signal was 8110 fluorescence intensity (a.u.).

The record behind these values is publication PMC7819943, “Rice protein-binding microarrays: a tool to detect cis-acting elements near promoter regions in rice”.
